Melanoma cell counts after drug treatment

From a melanoma drug combination screen (doi:10.1371/journal.pone.0140310); values rounded.

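The test systems are human melanoma cell lines, treated with two drugs together for 72 h and then stained and imaged. Values are the number of DAPI-stained nuclei as a percentage of the DMSO control: 100 is no effect, lower means fewer cells. Concentrations were fixed for each drug; these are the lower of two levels, a fifth of the higher. These are primary screening values without error estimates.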
An unselected part of the screen is shown.

Drugs:
tamatinib: COc1cc(Nc2ncc(F)c(Nc3ccc4c(n3)NC(=O)C(C)(C)O4)n2)cc(OC)c1OC at 400 nM
STA-4783: CN(NC(=O)CC(=O)NN(C)C(=S)c1ccccc1)C(=S)c1ccccc1 at 6 nM
tipifarnib: Cn1cncc1[C@@](N)(c1ccc(Cl)cc1)c1ccc2c(c1)c(-c1cccc(Cl)c1)cc(=O)n2C at 10 nM
CP-690550: C[C@@H]1CCN(C(=O)CC#N)C[C@@H]1N(C)c1ncnc2[nH]ccc12 at 1000 nM
BMS-536924: Cc1cc(N2CCOCC2)cc2[nH]c(-c3c(NC[C@@H](O)c4cccc(Cl)c4)cc[nH]c3=O)nc12 at 200 nM
lestaurtinib: C[C@]12O[C@H](C[C@]1(O)CO)n1c3ccccc3c3c4c(c5c6ccccc6n2c5c31)CNC4=O at 4 nM
MK-1775: C=CCn1c(=O)c2cnc(Nc3ccc(N4CCN(C)CC4)cc3)nc2n1-c1cccc(C(C)(C)O)n1 at 20 nM
cisplatin: N.N.[Cl][Pt][Cl] at 1600 nM

- tipifarnib and BMS-536924 | C32: 95.8; A375: 52.2; A101D: 91.8; A2058: 83.1
- STA-4783 and lestaurtinib | C32: 98.9; A375: 84.0; A101D: 81.4; A2058: 96.4
- cisplatin and STA-4783 | C32: 87.1; A375: 113; A101D: 88.1; A2058: 92.6
- tamatinib and lestaurtinib | C32: 103; A375: 86.1; A101D: 92.0; A2058: 96.6
- BMS-536924 and STA-4783 | C32: 86.6; A375: 19.7; A101D: 87.5; A2058: 70.5
- cisplatin and lestaurtinib | C32: 109; A375: 81.1; A101D: 81.5; A2058: 97.8
- tipifarnib and cisplatin | C32: 89.1; A375: 95.9; A101D: 82.8; A2058: 91.6
- CP-690550 and BMS-536924 | C32: 80.0; A375: 75.9; A101D: 89.6; A2058: 89.0
- cisplatin and tamatinib | C32: 90.0; A375: 56.6; A101D: 51.4; A2058: 85.0
- STA-4783 and tipifarnib | C32: 75.4; A375: 22.3; A101D: 64.5; A2058: 60.3
- tipifarnib and CP-690550 | C32: 87.7; A375: 108; A101D: 101; A2058: 97.8
- CP-690550 and cisplatin | C32: 108; A375: 100; A101D: 85.8; A2058: 95.1
- lestaurtinib and tipifarnib | C32: 95.3; A375: 86.6; A101D: 79.6; A2058: 90.2
- MK-1775 and lestaurtinib | C32: 101; A375: 64.5; A101D: 82.3; A2058: 99.5
- MK-1775 and cisplatin | C32: 87.7; A375: 81.1; A101D: 59.6; A2058: 99.6
- tamatinib and CP-690550 | C32: 98.0; A375: 78.2; A101D: 73.0; A2058: 94.0
- tamatinib and MK-1775 | C32: 95.5; A375: 82.9; A101D: 74.8; A2058: 92.2
- BMS-536924 and tamatinib | C32: 84.2; A375: 68.5; A101D: 79.6; A2058: 90.1
- BMS-536924 and MK-1775 | C32: 90.6; A375: 43.7; A101D: 90.1; A2058: 88.4
- tipifarnib and MK-1775 | C32: 79.1; A375: 42.5; A101D: 68.6; A2058: 80.7
- cisplatin and BMS-536924 | C32: 96.4; A375: 76.0; A101D: 88.0; A2058: 90.2
- tamatinib and tipifarnib | C32: 82.6; A375: 69.8; A101D: 59.3; A2058: 69.2